# Test results from the supplement of paper PMC9135407.
# “And” between values parts separate entries of the source, which are not always exact repeats. Equal entries are not always repeated. Structures can show the parent of a compound that is named as a salt. ± gives the standard deviation of the averaged measurements. Some of the results follow. Plates or batches differ in their baseline, so values are only roughly comparable.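 Culture-activated primary human stellate myofibroblasts, where regained lipid droplets signal inactivation. Value: share of Hoechst-counted cells above a per-plate Bodipy cutoff, in duplicate wells, with DMSO negative and nortriptyline positive controls on each plate. Hits: a control-normalized score above the plate's top-tenth-percentile nortriptyline wells, or one of a plate's three best wells. Final well concentrations are not given.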
# Test system: primary human hepatic stellate cells (donor 1)
# Assay: percent Bodipy-positive cells; higher = more lipid droplet accumulation
# Details: 48 h
# Description: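 Primary lipid accumulation screen in primary human hepatic stellate cell myofibroblasts (donor 1, passage 8) in 384-well plates. 100 nL of library compound was pin-transferred into 30 µL medium in duplicate, and cells were treated for 48 h. The 'Scaled' score combines distance from plate baseline, toxicity and reproducibility penalties, and is normalised to nortriptyline (positive) and DMSO (negative) controls on each plate. A hit is defined as scaled >0.85 or among the top 3 wells per plate.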
# [1] = library stock concentration: 10 mM
# [2] = library stock concentration: 3.33 mM
# [3] = library stock concentration: 1 mM
compound,measurement,setting,value
COc1ccc(/C=C/c2nc(NCCCN(C)C)c3ccccc3n2)cc1,percent Bodipy-positive cells,[1],100%
C[N+]1(C)[C@@H]2C[C@@H](OC(=O)C(O)(c3cccs3)c3cccs3)C[C@H]1[C@@H]1O[C@@H]12 [Tiotropium Bromide hydrate],percent Bodipy-positive cells,[2],9.33 ± 1.9%
same,percent Bodipy-positive cells,[1],12.1 ± 2.2%
CC(C)(C)C(=O)Oc1ccc(S(=O)(=O)Nc2ccccc2C(=O)NCC(=O)O)cc1 [Sivelestat sodium salt hydrate],percent Bodipy-positive cells,[1],33.8 ± 4.6%
CSc1ccc2c(c1)C(N1CCN(C)CC1)Cc1ccccc1S2 (stereo not drawn) [Methiothepin mesylate],percent Bodipy-positive cells,[1],96.45 ± 0.94%
CSc1ccc2c(c1)C(N1CCN(C)CC1)Cc1ccccc1S2 (stereo not drawn) [Methiothepin maleate],percent Bodipy-positive cells,,83.2 ± 4.7%
C[C@H]1COc2c(C3(N)CC3)c(F)cc3c(=O)c(C(=O)O)cn1c23 [Pazufloxacin],percent Bodipy-positive cells,library stock concentration: 6.3 mM,9.56 ± 2.9%
CC(C(=O)O)c1ccc2c(c1)Cc1cccnc1O2 (stereo not drawn) [Pranoprofen],percent Bodipy-positive cells,[2],13.1 ± 1.3%
same,percent Bodipy-positive cells,library stock concentration: 7.8 mM,5.71 ± 1.9%
same,percent Bodipy-positive cells,[1],31.9 ± 31%
CN(C)C/C=C(/c1ccc(Br)cc1)c1cccnc1.Cl.Cl [Zimelidine dihydrochloride],percent Bodipy-positive cells,[1],55.4 ± 6.9%
COC(=O)C[C@H](NC(=O)[C@H](C)NC(=O)[C@@H](NC(=O)OCc1ccccc1)C(C)C)C(=O)CF,percent Bodipy-positive cells,library stock concentration: 10.7 mM,21.1 ± 2.3%
Cc1cc(Nc2nc(-c3ccccc3)nc3ccccc23)n[nH]1 [GSK-3 Inhibitor XIII],percent Bodipy-positive cells,[2],38.9 ± 14%
COC(=O)[C@H]1[C@H]2C[C@H]3c4[nH]c5ccccc5c4CCN3C[C@@H]2CC[C@@H]1O [Corynanthine hydrochloride],percent Bodipy-positive cells,,27.1 ± 2.4%
Cl.Cl.c1ccc2c(NCCCCCCCNc3c4c(nc5ccccc35)CCCC4)c3c(nc2c1)CCCC3 [bis(7)-Tacrine],percent Bodipy-positive cells,[3],98.79 ± 0.16%
CC(=O)Nc1ccccc1 [Acetanilide],percent Bodipy-positive cells,[2],10.9 ± 3.6%
same,percent Bodipy-positive cells,[1],23.1% and 36.8%
O=C(/C=C/c1ccc2ccccc2n1)c1ccncc1,percent Bodipy-positive cells,[2],100%
same,percent Bodipy-positive cells,[1],95.15 ± 0.12%
Cc1cc(C(N)=O)ccc1-n1c(CCC(=O)O)ccc1-c1ccc(-n2ccnc2)cc1,percent Bodipy-positive cells,[2],38.7 ± 0.33%
same,percent Bodipy-positive cells,[1],26.3 ± 5.8%
CCCCCCCC/C=C\CCCCCCCCCCCCCC(=O)NCCS(=O)(=O)O [N-Nervonoyl Taurine],percent Bodipy-positive cells,[3],11.9 ± 0.21%
CCCCCCCCCC(=O)CC(=O)N[C@H]1CCOC1=O [N-3-oxo-dodecanoyl-L-Homoserine lactone],percent Bodipy-positive cells,[3],7.4 ± 0.41%
COC(c1ccccc1)(c1ccccc1)[C@H](Oc1nc(C)cc(C)n1)C(=O)O [Ambrisentan],percent Bodipy-positive cells,[2],4.83 ± 1.3%
same,percent Bodipy-positive cells,[1],10.4 ± 4%
COC(=O)C1=C(C)NC(C)=C(C(=O)OCCN2CCN(C(c3ccccc3)c3ccccc3)CC2)C1c1cccc([N+](=O)[O-])c1 (stereo not drawn) [Manidipine],percent Bodipy-positive cells,[2],14.4 ± 3.3%
same,percent Bodipy-positive cells,[1],23.6 ± 2.4%
COC(=O)C1=C(C)NC(C)=C(C(=O)OCCN2CCN(C(c3ccccc3)c3ccccc3)CC2)C1c1cccc([N+](=O)[O-])c1 (stereo not drawn) [Manidipine 2HCl],percent Bodipy-positive cells,[2],11.2 ± 2.4%
same,percent Bodipy-positive cells,[1],23.5 ± 1.2%
COC(=O)C1=C(C)NC(C)=C(C(=O)OCCN2CCN(C(c3ccccc3)c3ccccc3)CC2)C1c1cccc([N+](=O)[O-])c1 (stereo not drawn),percent Bodipy-positive cells,[1],74.6 ± 6.8%
CC(C)N(C[C@H]1O[C@@H](n2cnc3c(N)ncnc32)[C@H](O)[C@@H]1O)[C@H]1C[C@@H](CCc2nc3cc(C(C)(C)C)ccc3[nH]2)C1,percent Bodipy-positive cells,[2],11.64 ± 0.1%
same,percent Bodipy-positive cells,[1],66.1 ± 5.6%
C=Cc1c(C)c2cc3[nH]c(cc4nc(cc5nc(cc1[nH]2)C(C)=C5CCC(=O)O)C(CCC(=O)O)=C4C)c(C)c3C=C [Protoporphyrin IX disodium],percent Bodipy-positive cells,[1],56.77 ± 0.23%
Cc1ccc(O)c(N=Nc2ccccc2)n1,percent Bodipy-positive cells,[1],22% and 7.13%
Cc1c(C)c2c(c(C)c1O)CCC(C)(COc1ccc(CC3SC(=O)NC3=O)cc1)O2 (stereo not drawn) [Troglitazone],percent Bodipy-positive cells,[3],6.9 ± 4.7%
same,percent Bodipy-positive cells,library stock concentration: 4.5 mM,5.79% and 12.6%
C[C@]1(OC(=O)/C=C/c2ccccc2)C[C@@H](O)[C@]2(O)C=CO[C@@H](O[C@@H]3O[C@H](CO)[C@@H](O)[C@H](O)[C@H]3O)[C@@H]21 [Harpagoside],percent Bodipy-positive cells,,7.72 ± 2.3%
C[N+]1(C)[C@@H]2CC[C@H]1C[C@@H](OC(=O)C(O)c1ccccc1)C2 (stereo partly drawn) [Homatropine methylbromide],percent Bodipy-positive cells,library stock concentration: 5.4 mM,4.61 ± 2%
same,percent Bodipy-positive cells,[1],21.4 ± 0.61%
C[N+]1(C)[C@@H]2CC[C@H]1C[C@@H](OC(=O)C(O)c1ccccc1)C2 (stereo partly drawn) [Homatropine Methylbromide],percent Bodipy-positive cells,[2],11.1 ± 0.82%
same,percent Bodipy-positive cells,[1],26.9 ± 10%
"O=P(O)(O)O[C@@H]1[C@H](O)[C@H](O)[C@@H](OP(=O)(O)O)[C@H](OP(=O)(O)O)[C@H]1O [D-myo-Inositol-1,4,5-triphosphate (sodium salt)]",percent Bodipy-positive cells,[3],11.3 ± 0.36%
CC(=O)NC(C(=O)O)c1ccccc1 (stereo not drawn),percent Bodipy-positive cells,[1],28.8 ± 2.5%
S=C(S)OC1CC2CC1C1CCCC21 [D-609 potassium],percent Bodipy-positive cells,[1],23.9 ± 12%
Oc1ncnc2[nH]ncc12 [Allopurinol],percent Bodipy-positive cells,[2],9.386 ± 0.061%
same,percent Bodipy-positive cells,library stock concentration: 14.7 mM,7.79% and 2.02%
CN(N=O)C(=O)NC1C(O)OC(CO)C(O)C1O (stereo not drawn) [Streptozotocin (STZ)],percent Bodipy-positive cells,[2],10.3 ± 4%
same,percent Bodipy-positive cells,[1],17.2 ± 4.4%
O=[N+]([O-])c1ccc(-c2nc(-c3ccc(F)cc3)c(-c3ccncc3)[nH]2)cc1,percent Bodipy-positive cells,[3],14.8 ± 9.6%
same,percent Bodipy-positive cells,[2],14.1 ± 1.9%
same,percent Bodipy-positive cells,[1],47.6 ± 3.4%
C=C[C@]1(C)C[C@@H](OC(=O)CS[C@@H]2C[C@H]3CC[C@@H](C2)N3C)[C@]2(C)[C@H](C)CC[C@]3(CCC(=O)[C@H]32)[C@@H](C)[C@@H]1O [Retapamulin],percent Bodipy-positive cells,[2],36.1 ± 2.5%
"CCCCC(C)(C)[C@H](O)/C=C/[C@H]1C(=O)C[C@H](O)[C@@H]1C/C=C\CCCC(=O)O [16,16-dimethyl Prostaglandin D2]",percent Bodipy-positive cells,[3],10.9 ± 0.5%

# Reprinted from above (13 entries):
compound,measurement,setting,value
COC(=O)C1=C(C)NC(C)=C(C(=O)OCCN2CCN(C(c3ccccc3)c3ccccc3)CC2)C1c1cccc([N+](=O)[O-])c1 (stereo not drawn) [Manidipine],percent Bodipy-positive cells,[2],14.4 ± 3.3%
same,percent Bodipy-positive cells,[1],23.6 ± 2.4%
COC(=O)C1=C(C)NC(C)=C(C(=O)OCCN2CCN(C(c3ccccc3)c3ccccc3)CC2)C1c1cccc([N+](=O)[O-])c1 (stereo not drawn) [Manidipine 2HCl],percent Bodipy-positive cells,[2],11.2 ± 2.4%
same,percent Bodipy-positive cells,[1],23.5 ± 1.2%
COC(=O)C1=C(C)NC(C)=C(C(=O)OCCN2CCN(C(c3ccccc3)c3ccccc3)CC2)C1c1cccc([N+](=O)[O-])c1 (stereo not drawn),percent Bodipy-positive cells,[1],74.6 ± 6.8%
CC(C)N(C[C@H]1O[C@@H](n2cnc3c(N)ncnc32)[C@H](O)[C@@H]1O)[C@H]1C[C@@H](CCc2nc3cc(C(C)(C)C)ccc3[nH]2)C1,percent Bodipy-positive cells,[2],11.64 ± 0.1%
same,percent Bodipy-positive cells,[1],66.1 ± 5.6%
C=Cc1c(C)c2cc3[nH]c(cc4nc(cc5nc(cc1[nH]2)C(C)=C5CCC(=O)O)C(CCC(=O)O)=C4C)c(C)c3C=C [Protoporphyrin IX disodium],percent Bodipy-positive cells,[1],56.77 ± 0.23%
Cc1ccc(O)c(N=Nc2ccccc2)n1,percent Bodipy-positive cells,[1],22% and 7.13%
Cc1c(C)c2c(c(C)c1O)CCC(C)(COc1ccc(CC3SC(=O)NC3=O)cc1)O2 (stereo not drawn) [Troglitazone],percent Bodipy-positive cells,[3],6.9 ± 4.7%
same,percent Bodipy-positive cells,library stock concentration: 4.5 mM,5.79% and 12.6%
C[C@]1(OC(=O)/C=C/c2ccccc2)C[C@@H](O)[C@]2(O)C=CO[C@@H](O[C@@H]3O[C@H](CO)[C@@H](O)[C@H](O)[C@H]3O)[C@@H]21 [Harpagoside],percent Bodipy-positive cells,,7.72 ± 2.3%
C[N+]1(C)[C@@H]2CC[C@H]1C[C@@H](OC(=O)C(O)c1ccccc1)C2 (stereo partly drawn) [Homatropine methylbromide],percent Bodipy-positive cells,library stock concentration: 5.4 mM,4.61 ± 2%
